Test results published in the supplement of paper PMC10032668.
The other results are listed elsewhere or left out. The list holds hits alone, and they repeat only in part.

The chains behind the UniProt entries cited, without tags or fusion partners.
MPG, P29372, UniProt P29372, whole entry: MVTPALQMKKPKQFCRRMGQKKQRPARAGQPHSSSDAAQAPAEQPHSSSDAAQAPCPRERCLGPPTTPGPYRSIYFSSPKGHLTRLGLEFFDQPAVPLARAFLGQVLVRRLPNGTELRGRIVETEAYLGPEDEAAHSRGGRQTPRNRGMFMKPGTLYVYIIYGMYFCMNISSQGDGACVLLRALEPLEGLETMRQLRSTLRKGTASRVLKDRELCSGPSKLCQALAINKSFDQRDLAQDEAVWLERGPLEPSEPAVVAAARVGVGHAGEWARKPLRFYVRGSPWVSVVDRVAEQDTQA
WDR82, Q6UXN9, UniProt Q6UXN9, whole entry: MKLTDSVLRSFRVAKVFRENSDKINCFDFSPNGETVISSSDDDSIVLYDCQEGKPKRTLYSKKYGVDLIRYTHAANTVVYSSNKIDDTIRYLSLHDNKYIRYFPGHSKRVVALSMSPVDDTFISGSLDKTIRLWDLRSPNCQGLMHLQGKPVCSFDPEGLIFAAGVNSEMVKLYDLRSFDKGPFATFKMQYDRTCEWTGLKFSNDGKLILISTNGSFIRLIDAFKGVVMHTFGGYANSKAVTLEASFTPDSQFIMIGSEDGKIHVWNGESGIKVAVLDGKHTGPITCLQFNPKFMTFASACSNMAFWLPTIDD
GTF2F2, P13984, UniProt P13984, whole entry: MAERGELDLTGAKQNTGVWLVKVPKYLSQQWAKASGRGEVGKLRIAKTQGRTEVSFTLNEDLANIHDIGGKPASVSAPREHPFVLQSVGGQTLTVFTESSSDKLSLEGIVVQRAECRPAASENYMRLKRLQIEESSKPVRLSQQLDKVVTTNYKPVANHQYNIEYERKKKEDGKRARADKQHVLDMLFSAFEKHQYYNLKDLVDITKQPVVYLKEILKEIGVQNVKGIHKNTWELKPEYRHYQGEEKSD
H2AFY2, Q9P0M6, UniProt Q9P0M6, whole entry: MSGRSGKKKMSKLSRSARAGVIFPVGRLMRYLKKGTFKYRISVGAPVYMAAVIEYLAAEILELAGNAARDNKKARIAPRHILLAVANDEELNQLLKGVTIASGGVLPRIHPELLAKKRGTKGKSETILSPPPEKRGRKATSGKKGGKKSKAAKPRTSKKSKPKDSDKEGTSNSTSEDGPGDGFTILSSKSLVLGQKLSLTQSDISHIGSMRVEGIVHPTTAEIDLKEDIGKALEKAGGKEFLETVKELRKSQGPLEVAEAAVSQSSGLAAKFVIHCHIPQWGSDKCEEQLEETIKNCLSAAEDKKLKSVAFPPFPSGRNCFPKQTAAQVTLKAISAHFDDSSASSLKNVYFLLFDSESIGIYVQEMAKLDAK
HDAC2, Q92769, UniProt Q92769, whole entry: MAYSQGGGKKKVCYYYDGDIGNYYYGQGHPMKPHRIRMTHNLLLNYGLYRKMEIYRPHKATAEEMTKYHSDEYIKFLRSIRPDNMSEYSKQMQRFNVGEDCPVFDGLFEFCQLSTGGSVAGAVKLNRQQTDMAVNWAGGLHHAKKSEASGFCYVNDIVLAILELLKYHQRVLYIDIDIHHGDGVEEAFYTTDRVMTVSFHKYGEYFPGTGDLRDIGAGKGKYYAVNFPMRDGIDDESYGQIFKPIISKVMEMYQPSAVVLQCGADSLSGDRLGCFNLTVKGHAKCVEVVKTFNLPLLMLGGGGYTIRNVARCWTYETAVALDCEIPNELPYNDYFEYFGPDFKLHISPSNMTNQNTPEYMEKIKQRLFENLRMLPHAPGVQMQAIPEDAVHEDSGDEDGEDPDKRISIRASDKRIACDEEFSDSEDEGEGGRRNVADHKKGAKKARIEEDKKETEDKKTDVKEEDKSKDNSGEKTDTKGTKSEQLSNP
NDUFA13, Q9P0J0, UniProt Q9P0J0, whole entry: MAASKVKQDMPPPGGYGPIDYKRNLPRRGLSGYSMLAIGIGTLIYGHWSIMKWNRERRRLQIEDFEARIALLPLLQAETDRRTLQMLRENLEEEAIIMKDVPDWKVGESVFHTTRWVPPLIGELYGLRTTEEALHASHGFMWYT
DPY30, Q9C005, UniProt Q9C005, whole entry: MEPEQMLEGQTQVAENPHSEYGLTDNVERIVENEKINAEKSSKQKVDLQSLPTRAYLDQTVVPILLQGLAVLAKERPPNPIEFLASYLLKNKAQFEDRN
MCM2, P49736, UniProt P49736, whole entry: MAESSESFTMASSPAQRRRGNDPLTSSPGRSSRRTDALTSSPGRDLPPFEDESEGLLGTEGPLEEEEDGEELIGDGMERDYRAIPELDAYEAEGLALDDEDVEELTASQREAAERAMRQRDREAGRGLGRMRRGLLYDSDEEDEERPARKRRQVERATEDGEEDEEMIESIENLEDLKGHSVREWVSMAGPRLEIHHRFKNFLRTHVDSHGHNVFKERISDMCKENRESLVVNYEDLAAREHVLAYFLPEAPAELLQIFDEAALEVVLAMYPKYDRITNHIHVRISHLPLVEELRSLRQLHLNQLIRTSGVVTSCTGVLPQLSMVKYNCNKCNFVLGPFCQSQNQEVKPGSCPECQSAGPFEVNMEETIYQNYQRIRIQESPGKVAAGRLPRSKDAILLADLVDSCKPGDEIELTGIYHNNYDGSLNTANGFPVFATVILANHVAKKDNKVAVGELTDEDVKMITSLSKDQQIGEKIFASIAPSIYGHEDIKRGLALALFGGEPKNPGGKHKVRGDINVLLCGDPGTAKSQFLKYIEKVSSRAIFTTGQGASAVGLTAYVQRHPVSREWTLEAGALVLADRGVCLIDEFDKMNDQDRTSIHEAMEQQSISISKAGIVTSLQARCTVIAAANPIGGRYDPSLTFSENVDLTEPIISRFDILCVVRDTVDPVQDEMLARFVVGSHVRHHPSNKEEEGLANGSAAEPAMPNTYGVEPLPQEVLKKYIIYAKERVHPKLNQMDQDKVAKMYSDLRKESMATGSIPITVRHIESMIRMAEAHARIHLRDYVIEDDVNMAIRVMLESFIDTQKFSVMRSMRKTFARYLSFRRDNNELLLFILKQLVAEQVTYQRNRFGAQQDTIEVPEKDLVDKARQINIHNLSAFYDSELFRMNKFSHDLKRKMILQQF
NUP153, P49790, UniProt P49790, whole entry: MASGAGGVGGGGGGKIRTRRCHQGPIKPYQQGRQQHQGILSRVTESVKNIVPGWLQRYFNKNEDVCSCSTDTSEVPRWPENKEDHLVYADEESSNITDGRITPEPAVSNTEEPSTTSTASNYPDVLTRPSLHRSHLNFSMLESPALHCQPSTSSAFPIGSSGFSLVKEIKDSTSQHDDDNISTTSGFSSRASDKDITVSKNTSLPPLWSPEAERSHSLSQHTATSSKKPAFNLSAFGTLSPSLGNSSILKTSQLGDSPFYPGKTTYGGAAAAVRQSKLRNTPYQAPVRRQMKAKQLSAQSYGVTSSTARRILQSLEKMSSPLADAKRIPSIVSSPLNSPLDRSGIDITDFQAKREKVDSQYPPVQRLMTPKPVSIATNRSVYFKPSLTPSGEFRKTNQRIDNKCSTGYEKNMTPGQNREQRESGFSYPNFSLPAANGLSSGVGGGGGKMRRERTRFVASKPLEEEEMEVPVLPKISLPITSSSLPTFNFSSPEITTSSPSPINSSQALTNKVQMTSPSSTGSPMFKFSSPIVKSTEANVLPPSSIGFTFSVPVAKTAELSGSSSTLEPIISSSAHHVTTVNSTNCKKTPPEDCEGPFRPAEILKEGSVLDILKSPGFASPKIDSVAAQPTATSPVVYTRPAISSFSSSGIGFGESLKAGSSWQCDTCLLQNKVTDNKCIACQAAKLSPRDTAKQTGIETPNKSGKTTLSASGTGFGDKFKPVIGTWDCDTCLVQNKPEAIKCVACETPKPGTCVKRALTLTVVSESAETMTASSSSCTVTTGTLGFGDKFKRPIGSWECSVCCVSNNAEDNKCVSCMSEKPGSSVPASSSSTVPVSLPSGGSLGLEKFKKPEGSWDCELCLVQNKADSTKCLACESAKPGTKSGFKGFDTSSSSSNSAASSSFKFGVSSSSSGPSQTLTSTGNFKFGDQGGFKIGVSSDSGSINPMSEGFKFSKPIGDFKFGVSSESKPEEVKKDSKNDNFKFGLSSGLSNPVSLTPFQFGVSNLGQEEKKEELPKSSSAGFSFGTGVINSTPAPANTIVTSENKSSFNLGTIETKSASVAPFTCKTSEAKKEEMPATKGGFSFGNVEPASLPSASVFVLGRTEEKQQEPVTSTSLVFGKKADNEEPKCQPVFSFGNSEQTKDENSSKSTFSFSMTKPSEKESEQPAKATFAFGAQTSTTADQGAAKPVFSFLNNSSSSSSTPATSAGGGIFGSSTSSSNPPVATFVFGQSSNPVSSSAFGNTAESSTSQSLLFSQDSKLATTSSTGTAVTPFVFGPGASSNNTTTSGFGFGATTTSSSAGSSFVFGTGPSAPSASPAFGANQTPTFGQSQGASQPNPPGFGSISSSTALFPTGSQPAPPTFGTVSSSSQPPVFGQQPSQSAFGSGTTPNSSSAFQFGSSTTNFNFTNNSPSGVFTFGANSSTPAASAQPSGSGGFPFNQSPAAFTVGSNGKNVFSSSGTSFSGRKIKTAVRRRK
PABPC4, Q13310, UniProt Q13310, whole entry: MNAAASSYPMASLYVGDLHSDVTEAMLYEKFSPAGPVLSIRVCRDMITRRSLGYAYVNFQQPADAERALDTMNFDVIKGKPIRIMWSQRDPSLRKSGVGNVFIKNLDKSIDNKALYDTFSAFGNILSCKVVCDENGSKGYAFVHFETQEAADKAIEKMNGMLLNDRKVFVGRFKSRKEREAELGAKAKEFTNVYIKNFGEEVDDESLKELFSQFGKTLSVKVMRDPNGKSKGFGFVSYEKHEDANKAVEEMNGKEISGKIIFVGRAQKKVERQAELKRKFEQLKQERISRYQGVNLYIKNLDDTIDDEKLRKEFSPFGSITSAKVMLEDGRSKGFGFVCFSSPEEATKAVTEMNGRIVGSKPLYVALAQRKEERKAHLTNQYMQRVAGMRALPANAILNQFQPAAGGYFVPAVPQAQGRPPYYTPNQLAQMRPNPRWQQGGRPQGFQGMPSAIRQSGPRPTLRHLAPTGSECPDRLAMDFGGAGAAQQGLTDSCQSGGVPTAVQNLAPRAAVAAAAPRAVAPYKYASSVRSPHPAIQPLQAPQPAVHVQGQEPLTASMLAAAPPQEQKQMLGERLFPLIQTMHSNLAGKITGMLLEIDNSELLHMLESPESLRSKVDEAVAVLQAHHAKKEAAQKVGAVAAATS

Columns and labels:
Assay in all cases: PRISMA enrichment of interactor (LFQ) in peptide spot vs all other peptide spots (log2 fold change); higher = stronger / more specific binding of the interactor to the peptide
ACOT13, Q9NPJ3 = biological target: ACOT13, Q9NPJ3
Procedure: (§1)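 PRISMA: 15-aa overlapping tiles (offset 8 aa) of 60 microproteins, plus SOS1/GLUT1 control peptides, were spot-synthesized on cellulose membranes in triplicate. Membranes were incubated with benzonase-treated HEK293T lysate, and bound proteins were identified by LC-MS/MS with LFQ. Enrichment is the log2 fold change of each protein in one spot versus all other spots. Only interactors passing the significance cutoff are listed.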

DDX51, Q8N8A6 = biological target: DDX51, Q8N8A6
Procedure: as §1

MAP1B, P46821 = biological target: MAP1B, P46821
Procedure: as §1

MRPL19, P49406 = biological target: MRPL19, P49406
Procedure: as §1

PHGDH, O43175 = biological target: PHGDH, O43175
Procedure: as §1

STAG2, Q8N3U4 = biological target: STAG2, Q8N3U4
Procedure: as §1

UMPS, P11172 = biological target: UMPS, P11172
Procedure: as §1

ACOT7, O00154 = biological target: ACOT7, O00154
Procedure: as §1

DDX49, Q9Y6V7 = biological target: DDX49, Q9Y6V7
Procedure: as §1

DNAJA3, Q96EY1 = biological target: DNAJA3, Q96EY1
Procedure: as §1

FBXO45, P0C2W1 = biological target: FBXO45, P0C2W1
Procedure: as §1

HOMER2, Q9NSB8 = biological target: HOMER2, Q9NSB8
Procedure: as §1

MARK2, Q7KZI7 = biological target: MARK2, Q7KZI7
Procedure: as §1

ZC3H15, Q8WU90 = biological target: ZC3H15, Q8WU90
Procedure: as §1

ACP1, P24666 = biological target: ACP1, P24666
Procedure: as §1

AKAP17A, Q02040 = biological target: AKAP17A, Q02040
Procedure: as §1

ASNS, P08243 = biological target: ASNS, P08243
Procedure: as §1

DRG2, P55039 = biological target: DRG2, P55039
Procedure: as §1

MPG, P29372 = biological target: MPG, P29372
Procedure: as §1

MRPL11, Q9Y3B7 = biological target: MRPL11, Q9Y3B7
Procedure: as §1

MRPS5, P82675 = biological target: MRPS5, P82675
Procedure: as §1

MTA2, O94776 = biological target: MTA2, O94776
Procedure: as §1

NEK7, Q8TDX7 = biological target: NEK7, Q8TDX7
Procedure: as §1

NME4, O00746 = biological target: NME4, O00746
Procedure: as §1

NPM3, O75607 = biological target: NPM3, O75607
Procedure: as §1

NSUN5, Q96P11 = biological target: NSUN5, Q96P11
Procedure: as §1

PDCL3, Q9H2J4 = biological target: PDCL3, Q9H2J4
Procedure: as §1

PRDX2, P32119 = biological target: PRDX2, P32119
Procedure: as §1

TIMM8B, Q9Y5J9 = biological target: TIMM8B, Q9Y5J9
Procedure: as §1

WDR43, Q15061 = biological target: WDR43, Q15061
Procedure: as §1

WDR82, Q6UXN9 = biological target: WDR82, Q6UXN9
Procedure: as §1

ZC3H14, Q6PJT7 = biological target: ZC3H14, Q6PJT7
Procedure: as §1

ASMTL, O95671 = biological target: ASMTL, O95671
Procedure: as §1

CCT7, Q99832 = biological target: CCT7, Q99832
Procedure: as §1

COPB1, P53618 = biological target: COPB1, P53618
Procedure: as §1

GNL3L, Q9NVN8 = biological target: GNL3L, Q9NVN8
Procedure: as §1

GTF2F2, P13984 = biological target: GTF2F2, P13984
Procedure: as §1

H2AFY2, Q9P0M6 = biological target: H2AFY2, Q9P0M6
Procedure: as §1

HDAC2, Q92769 = biological target: HDAC2, Q92769
Procedure: as §1

HLTF, Q14527 = biological target: HLTF, Q14527
Procedure: as §1

HSD17B11, Q8NBQ5 = biological target: HSD17B11, Q8NBQ5
Procedure: as §1

MRPS15, P82914 = biological target: MRPS15, P82914
Procedure: as §1

MYCBP2, O75592 = biological target: MYCBP2, O75592
Procedure: as §1

NDUFA13, Q9P0J0 = biological target: NDUFA13, Q9P0J0
Procedure: as §1

NRDE2, Q9H7Z3 = biological target: NRDE2, Q9H7Z3
Procedure: as §1

PDIA4, P13667 = biological target: PDIA4, P13667
Procedure: as §1

PSMB2, P49721 = biological target: PSMB2, P49721
Procedure: as §1

ADAR, P55265 = biological target: ADAR, P55265
Procedure: as §1

AKAP1, Q92667 = biological target: AKAP1, Q92667
Procedure: as §1

AP1B1, Q10567 = biological target: AP1B1, Q10567
Procedure: as §1

C2orf49, Q9BVC5 = biological target: C2orf49, Q9BVC5
Procedure: as §1

CEP290, O15078 = biological target: CEP290, O15078
Procedure: as §1

CKAP4, Q07065 = biological target: CKAP4, Q07065
Procedure: as §1

DDX28, Q9NUL7 = biological target: DDX28, Q9NUL7
Procedure: as §1

DPY30, Q9C005 = biological target: DPY30, Q9C005
Procedure: as §1

ENAH, Q8N8S7 = biological target: ENAH, Q8N8S7
Procedure: as §1

GPI, P06744 = biological target: GPI, P06744
Procedure: as §1

HERC5, Q9UII4 = biological target: HERC5, Q9UII4
Procedure: as §1

MCM2, P49736 = biological target: MCM2, P49736
Procedure: as §1

MON2, Q7Z3U7 = biological target: MON2, Q7Z3U7
Procedure: as §1

NUP153, P49790 = biological target: NUP153, P49790
Procedure: as §1

PABPC4, Q13310 = biological target: PABPC4, Q13310
Procedure: as §1

PKP2, Q99959 = biological target: PKP2, Q99959
Procedure: as §1

[1] = substrate: PNN, Q9H307
Procedure: as §1

PRPF4B = biological target: PRPF4B
Procedure: as §1

PRRC2C, Q9Y520 = biological target: PRRC2C, Q9Y520
Procedure: as §1

RRP36, Q96EU6 = biological target: RRP36, Q96EU6
Procedure: as §1

SAMM50, Q9Y512 = biological target: SAMM50, Q9Y512
Procedure: as §1

SDAD1, Q9NVU7 = biological target: SDAD1, Q9NVU7
Procedure: as §1

STRBP, Q96SI9 = biological target: STRBP, Q96SI9
Procedure: as §1

TMEM201, Q5SNT2 = biological target: TMEM201, Q5SNT2
Procedure: as §1

ZC3H18, Q86VM9 = biological target: ZC3H18, Q86VM9
Procedure: as §1

WRWLWLGRKRNHPAR [RP11-464C19.3]
PRISMA enrichment of interactor (log2) (ACOT13, Q9NPJ3): 4.64
PRISMA enrichment of interactor (log2) (DDX51, Q8N8A6): 4.55
PRISMA enrichment of interactor (log2) (MAP1B, P46821): 4.29
PRISMA enrichment of interactor (log2) (MRPL19, P49406): 6.6

PFSGNIFLVTMKGQY [BANCR]
PRISMA enrichment of interactor (log2) (ACOT13, Q9NPJ3): 4.21
PRISMA enrichment of interactor (log2) (PHGDH, O43175): 3.27
PRISMA enrichment of interactor (log2) (STAG2, Q8N3U4): 5.99
PRISMA enrichment of interactor (log2) (UMPS, P11172): 4.93

MCRGIQTLENVPPEF [JHDM1D-AS1]
PRISMA enrichment of interactor (log2) (ACOT7, O00154): 5.31
PRISMA enrichment of interactor (log2) (DDX49, Q9Y6V7): 5.86
PRISMA enrichment of interactor (log2) (DNAJA3, Q96EY1): 5.19
PRISMA enrichment of interactor (log2) (FBXO45, P0C2W1): 4.49
PRISMA enrichment of interactor (log2) (HOMER2, Q9NSB8): 4.17
PRISMA enrichment of interactor (log2) (MARK2, Q7KZI7): 8.59
PRISMA enrichment of interactor (log2) (ZC3H15, Q8WU90): 5.19

EKGLVFLNGKLGRII [MIEF-MP]
PRISMA enrichment of interactor (log2) (ACOT7, O00154): 4.07
PRISMA enrichment of interactor (log2) (ACP1, P24666): 6.44
PRISMA enrichment of interactor (log2) (AKAP17A, Q02040): 4.26
PRISMA enrichment of interactor (log2) (ASNS, P08243): 4.98
PRISMA enrichment of interactor (log2) (DRG2, P55039): 3.98
PRISMA enrichment of interactor (log2) (MPG, P29372): 4.47
PRISMA enrichment of interactor (log2) (MRPL11, Q9Y3B7): 8.66
PRISMA enrichment of interactor (log2) (MRPS5, P82675): 6.21
PRISMA enrichment of interactor (log2) (MTA2, O94776): 5.71
PRISMA enrichment of interactor (log2) (NEK7, Q8TDX7): 7.51
PRISMA enrichment of interactor (log2) (NME4, O00746): 5.66
PRISMA enrichment of interactor (log2) (NPM3, O75607): 3.75
PRISMA enrichment of interactor (log2) (NSUN5, Q96P11): 5.07
PRISMA enrichment of interactor (log2) (PDCL3, Q9H2J4): 7.99
PRISMA enrichment of interactor (log2) (PRDX2, P32119): 7
PRISMA enrichment of interactor (log2) (TIMM8B, Q9Y5J9): 4.62
PRISMA enrichment of interactor (log2) (WDR43, Q15061): 4.26
PRISMA enrichment of interactor (log2) (WDR82, Q6UXN9): 8.22
PRISMA enrichment of interactor (log2) (ZC3H14, Q6PJT7): 4.73

ERRAMGILTTSVRKK [RP11-12K22.1]
PRISMA enrichment of interactor (log2) (ACOT7, O00154): 4.12
PRISMA enrichment of interactor (log2) (ASMTL, O95671): 5.01
PRISMA enrichment of interactor (log2) (CCT7, Q99832): 5.61
PRISMA enrichment of interactor (log2) (COPB1, P53618): 5.33
PRISMA enrichment of interactor (log2) (GNL3L, Q9NVN8): 7.01
PRISMA enrichment of interactor (log2) (GTF2F2, P13984): 5.81
PRISMA enrichment of interactor (log2) (H2AFY2, Q9P0M6): 4.08
PRISMA enrichment of interactor (log2) (HDAC2, Q92769): 4.1
PRISMA enrichment of interactor (log2) (HLTF, Q14527): 7.12
PRISMA enrichment of interactor (log2) (HSD17B11, Q8NBQ5): 4.13
PRISMA enrichment of interactor (log2) (MRPS15, P82914): 5.02
PRISMA enrichment of interactor (log2) (MYCBP2, O75592): 4.41
PRISMA enrichment of interactor (log2) (NDUFA13, Q9P0J0): 4.86
PRISMA enrichment of interactor (log2) (NRDE2, Q9H7Z3): 3.65
PRISMA enrichment of interactor (log2) (PDIA4, P13667): 5.18
PRISMA enrichment of interactor (log2) (PSMB2, P49721): 6.78

MKAVVARTGAAAVSG [C5orf56]
PRISMA enrichment of interactor (log2) (ACOT7, O00154): 5.29
PRISMA enrichment of interactor (log2) (ADAR, P55265): 4.67
PRISMA enrichment of interactor (log2) (AKAP1, Q92667): 4.95
PRISMA enrichment of interactor (log2) (AP1B1, Q10567): 6.01
PRISMA enrichment of interactor (log2) (C2orf49, Q9BVC5): 3.76
PRISMA enrichment of interactor (log2) (CEP290, O15078): 5.28
PRISMA enrichment of interactor (log2) (CKAP4, Q07065): 6.82
PRISMA enrichment of interactor (log2) (DDX28, Q9NUL7): 5.29
PRISMA enrichment of interactor (log2) (DPY30, Q9C005): 3.98
PRISMA enrichment of interactor (log2) (ENAH, Q8N8S7): 4.57
PRISMA enrichment of interactor (log2) (FBXO45, P0C2W1): 7.76
PRISMA enrichment of interactor (log2) (GPI, P06744): 4.59
PRISMA enrichment of interactor (log2) (HERC5, Q9UII4): 5.34
PRISMA enrichment of interactor (log2) (MCM2, P49736): 5.61
PRISMA enrichment of interactor (log2) (MON2, Q7Z3U7): 4.01
PRISMA enrichment of interactor (log2) (NUP153, P49790): 4.98
PRISMA enrichment of interactor (log2) (PABPC4, Q13310): 6.91
PRISMA enrichment of interactor (log2) (PKP2, Q99959): 6.43
PRISMA enrichment of interactor (log2) [1]: 5.57
PRISMA enrichment of interactor (log2) (PRPF4B): 5.95
PRISMA enrichment of interactor (log2) (PRRC2C, Q9Y520): 5.24
PRISMA enrichment of interactor (log2) (RRP36, Q96EU6): 5.2
PRISMA enrichment of interactor (log2) (SAMM50, Q9Y512): 4.52
PRISMA enrichment of interactor (log2) (SDAD1, Q9NVU7): 6.1
PRISMA enrichment of interactor (log2) (STRBP, Q96SI9): 4.17
PRISMA enrichment of interactor (log2) (TMEM201, Q5SNT2): 5.24
PRISMA enrichment of interactor (log2) (ZC3H18, Q86VM9): 7.43
